Measured values: the supplement of paper PMC10373366
Counter-ions that a name gives are not always drawn. The list shows a part of the results. Single values are uncertain, as repeats are few or missing.

Columns and labels:
A2780 = experiment: cell growth inhibition ratio vs untreated control (CCK8); higher = stronger inhibition of cell viability; conditions: 10 µM; 48 h
Protocol: (§1)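 Natural product library (Topscience) screened at 10 µM final concentration for 48 h on ovarian cancer A2780 cells and patient-derived ovarian cancer cells (PDC) in 96-well plates; viability read by CCK8 and reported as inhibition ratio (%) relative to untreated control. Single-dose primary screen.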

[1] = system: patient-derived ovarian cancer cells (PDC); experiment: as above; conditions: 10 µM; 48 h
Protocol: as §1

Compound	cell growth inhibition ratio (A2780) [%]	cell growth inhibition ratio [1] [%]
NCCc1c[nH]cn1 [Histamine]	25	-1.21
COc1cc2c(cc1OC)-c1cc3ccc(OC)c(OC)c3c[n+]1CC2 [Palmatine chloride]	-33	-3.49
CC1(C)C2CCC1(C)C(O)C2 (configuration not stated) [Borneol]	0.48	7.96
C[C@H]1[C@H](C)CC[C@]2(C(=O)O)CC[C@]3(C)C(=CC[C@@H]4[C@@]5(C)CC[C@H](O)C(C)(C)[C@@H]5CC[C@]43C)[C@H]12 [Ursolic acid]	-0.0364	-10.1
Oc1cc(O)c2c(c1)O[C@H](c1ccc(O)c(O)c1)[C@H](O)C2 [Epicatechin]	-6.73	-22.5
O[C@H]1[C@H]2c3cc4c(cc3CN3CCC(=C[C@@H]1O)[C@H]23)OCO4 [Lycorine chloride]	76.6	67
C=CC(C)(C)c1cc(/C=C/C(=O)c2ccc(O)cc2)c(OC)cc1O [Licochalcone A]	9.6	-18.3
COc1cc2c(cc1O)CC[n+]1cc3c(OC)c(OC)ccc3cc1-2 [Jatrorrhizine hydrochloride]	-19.6	-3.94
COc1ccc(-c2cc(=O)c3c(O)c(OC)c(O)c(OC)c3o2)cc1 [Lysionotin]	61.4	3.57
CC(=O)O[C@@]12CO[C@@H]1C[C@H](O)[C@@]1(C)C(=O)[C@H](O)C3=C(C)[C@@H](OC(=O)[C@H](O)[C@@H](NC(=O)OC(C)(C)C)c4ccccc4)C[C@@](O)([C@@H](OC(=O)c4ccccc4)[C@H]21)C3(C)C [Docetaxel]	79	63.7
C[C@@]12C[C@@]3(O)O[C@@H](O1)[C@]1(COC(=O)c4ccccc4)[C@H]3C[C@@]12O[C@@H]1O[C@H](CO)[C@@H](O)[C@H](O)[C@H]1O [Paeoniflorin]	-9.15	0.254
O=C(CO)C(O)C(O)C(O)CO (stereo not drawn) [L(-)-sorbose]	25.3	14.5
COC(=O)C1=CO[C@@H](O[C@@H]2O[C@H](CO)[C@@H](O)[C@H](O)[C@H]2O)[C@H]2[C@@H]1C(=O)C[C@@H]2C	5.6	-8.15
C[C@]12CC[C@@H]3c4ccc(O)cc4CC[C@H]3[C@@H]1C[C@@H](O)[C@@H]2O [Estriol]	3.81	-47.3
O=c1c(O)c(-c2ccccc2)oc2ccccc12 [3-Hydroxyflavone]	-7.8	-14.3
CC1(C)CC[C@]2(C(=O)O)CC[C@]3(CO)C(=CC[C@@H]4[C@@]5(C)C[C@H](O)[C@H](O[C@@H]6O[C@H](CO)[C@@H](O)[C@H](O)[C@H]6O)[C@@](C)(C(=O)O)[C@@H]5CC[C@]43C)[C@@H]2C1 [Tenuifolin]	16.8	8.94
COc1ccc(-c2oc3c(CC=C(C)C)c(O[C@@H]4C[C@H](CO)[C@@H](O)[C@H](O)[C@H]4O)cc(O)c3c(=O)c2O[C@@H]2O[C@@H](C)[C@H](O)[C@@H](O)[C@H]2O[C@@H]2O[C@H](CO)[C@@H](O)[C@H](O)[C@H]2O)cc1 [Epimedin A]	8.93	0.484
O=C(O)c1cc(O)ccc1O [Gentisic acid]	9.34	9.7
CC1=CC(=O)c2ccccc2C1=O [Menadione]	84.2	26.2
COc1ccc2cc1Oc1ccc(cc1)C[C@H]1c3cc(c(OC)cc3CCN1C)Oc1c(O)c(OC)cc3c1[C@H](C2)N(C)CC3 [(+)-Fangchinoline]	91.7	78.1
Cn1c(=O)c2[nH]cnc2n(C)c1=O [Aminophylline]	0.52	-8.64
COC(=O)C1=CC[C@@]23CC[C@@H]([C@@](C)(/C=C/C=C(\C)C(=O)O)OC2=O)[C@@]3(OC(C)=O)CC1 [Pseudolaric Acid B]	82.8	40.8
CC12CCC(CC1=O)C2(C)C (configuration not stated) [Camphor]	-12.2	3.82
CC[C@]12CCCN3CCc4c(n(c5ccccc45)[C@@](O)(C(=O)OC)C1)[C@@H]32 [Vincamine]	20.6	8.83
O=c1c(O)c(-c2ccc(O)c(O)c2)oc2cc(O)cc(O)c12 [Quercetin]	-42	-5.05
CC(C)=CCC[C@@](C)(O)[C@H]1CC[C@]2(C)[C@@H]1[C@H](O)C[C@@H]1[C@@]3(C)CC[C@H](O[C@@H]4O[C@H](CO)[C@@H](O)[C@H](O)[C@H]4O[C@@H]4O[C@H](CO)[C@@H](O)[C@H](O)[C@H]4O)C(C)(C)[C@@H]3CC[C@]12C [20(R)-Propanaxadiol]	12.3	-20.5

Some of these compounds in order of length of the SMILES, high to low:
Compound	cell growth inhibition ratio (A2780) [%]	cell growth inhibition ratio [1] [%]
Oc1cc(O)c2c(c1)O[C@H](c1ccc(O)c(O)c1)[C@H](O)C2 [Epicatechin]	-6.73	-22.5
O=C(CO)C(O)C(O)C(O)CO (stereo not drawn) [L(-)-sorbose]	25.3	14.5
O=C(O)c1cc(O)ccc1O [Gentisic acid]	9.34	9.7
